PubChem BioAssay AID652259 – Drosophila RNAi Screening Center | 2013
The screen tested about 22,000 reagents; this is an unselected part of those that have a named target and a result. Over the whole deposit, 233 (1.1%) are marked active. 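Light values are raw, unnormalised plate reads; the ratio scores behind the reporter calls were not deposited.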 Entries without a mark were called inactive. Names joined by + are all predicted targets of the reagent. Not stated in the record: the amount of reagent, the time to read-out, the dose of the treatment.

- Assay: 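Knock-downs that push a Wingless-driven reporter up or down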 (primary screen)
- System: Drosophila clone 8 imaginal disc epithelial cells
- Knock-down reagent: long dsRNA against Drosophila genes
- Challenge: pathway stimulated by co-transfected Wingless expression plasmid
- Measurement: 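Dual luciferase reads per well after Wingless plasmid stimulation: reporter firefly light and Renilla control light; activity is firefly divided by Renilla, a ratio not deposited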
- Reading the numbers: firefly reporter light: higher = more Wg reporter light, before normalisation; Renilla control light: higher = more transfected or surviving cells
- Hit rule: 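Strong candidates differ from their plate mean by at least two out of four per-plate statistical tests; weak candidates meet just one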
- Calls: active = candidate regulator (raises or lowers reporter); inactive = not a candidate

Gene | DRSC id | reporter change call, replicate 1 | firefly reporter light, replicate 1 | firefly reporter light, replicate 2 | Renilla control light, replicate 1 | Renilla control light, replicate 2
CG31419 | DRSC15771 | – | 12865 | – | 2243 | –
RpS16 (Ribosomal protein S16) | DRSC04442 | – | 2992 | 6106 | 625 | 1600
SdhAL (Succinate dehydrogenase, subunit A (flavoprotein)-like) | DRSC10539 | – | 2576 | – | 1456 | –
tomboy20 | DRSC14913 | – | 12828 | – | 3874 | –
CG8441 | DRSC07180 | – | 8392 | – | 1657 | –
CG14431 | DRSC17925 | – | 17437 | – | 9440 | –
CG14431 | DRSC17926 | – | 27234 | – | 6442 | –
Sec6 (Secretory 6) | DRSC06932 | – | 15458 | – | 3872 | –
mRpL48 (mitochondrial ribosomal protein L48) | DRSC00506 | – | 4080 | 12330 | 1028 | 3219
Ir52b (Ionotropic receptor 52b) | DRSC06263 | – | 4752 | – | 2097 | –
CG34337 | DRSC18435 | – | 26699 | – | 11232 | –
CG31294 | DRSC22217 | – | 6.76e5 | 7.41e5 | 3.00e5 | 3.35e5
CG17652 | DRSC00511 | – | 4130 | 8504 | 1448 | 3584
CG15253 | DRSC01871 | – | 2875 | 7888 | 1436 | 3339
prtp (pretaporter) | DRSC19804 | – | 4951 | 8843 | 1708 | 4646
prtp (pretaporter) | DRSC22494 | – | 7.15e5 | 6.39e5 | 2.76e5 | 1.60e5
CG43182 | DRSC17668 | – | 3094 | – | 1428 | –
Dic3 | DRSC06058 | – | 4005 | 8445 | 1274 | 3537
lobo (lost boys) | DRSC14662 | – | 19396 | – | 14277 | –
lobo (lost boys) | DRSC14663 | – | 13568 | – | 14257 | –
Nepl12 (Neprilysin-like 12) | DRSC16411 | – | 14800 | – | 3974 | –
hth (homothorax) | DRSC16967 | – | 15448 | – | 2897 | –
Nuak (Nuak family kinase) | DRSC14414 | – | 14753 | – | 4167 | –
Nuak (Nuak family kinase) | DRSC14415 | – | 8499 | – | 2839 | –
Nuak (Nuak family kinase) | DRSC14416 | – | 15205 | – | 5376 | –
CG5618 | DRSC11780 | – | 7654 | – | 2869 | –
PPP1R15 (Protein phosphatase 1 regulatory subunit 15) | DRSC04422 | Wg reporter activity raised | 9948 | – | 1699 | –
CG15531 | DRSC15068 | – | 7971 | – | 2753 | –
dpr18 (defective proboscis extension response 18) | DRSC19606 | – | 20993 | – | 8580 | –
Su(var)2-HP2 | DRSC06204 | – | 13728 | – | 3513 | –
Cpr64Ab (Cuticular protein 64Ab) | DRSC08461 | – | 7479 | – | 3024 | –
Egm (Enigma) | DRSC07319 | – | 17090 | – | 5424 | –
Egm (Enigma) | DRSC22860 | – | 8.11e5 | 7.57e5 | 2.97e5 | 3.19e5
CG14868 | DRSC14991 | – | 2953 | – | 1220 | –
ETH + asRNA:CR43257 | DRSC04612 | – | 3708 | 5761 | 483 | 1497
CG42324 | DRSC08431 | – | 3866 | – | 1872 | –
CG42324 | DRSC08432 | – | 4595 | – | 2532 | –
Nopp140 | DRSC11872 | – | 21568 | – | 6804 | –
wisp (wispy) | DRSC19703 | – | 2796 | 8706 | 720 | 2433
Ance-4 | DRSC07104 | – | 2048 | 6651 | 953 | 2870
plx (pollux) | DRSC12260 | – | 14002 | – | 3067 | –
plx (pollux) | DRSC12385 | – | 19834 | – | 4625 | –
plx (pollux) | DRSC22683 | – | 5.64e5 | 7.04e5 | 1.74e5 | 1.59e5
Gnpat (Glyceronephosphate O-acyltransferase) | DRSC16960 | – | 22009 | – | 17349 | –
Galphai (G protein alpha subunit i) | DRSC11168 | – | 5174 | – | 2742 | –
Grip71 | DRSC02042 | – | 2325 | 7684 | 252 | 3254
HipHop (HP1-HOAP-interacting protein) | DRSC10734 | – | 5076 | – | 1859 | –
Acp63F (Accessory gland protein 63F) | DRSC08137 | – | 6553 | – | 2899 | –
Lrt (Leucine-rich tendon-specific protein) | DRSC06045 | – | 5943 | – | 2987 | –
Rrp42 | DRSC07161 | – | 5378 | – | 1536 | –

No new results follow: an excerpt of the list.
Gene | DRSC id | reporter change call, replicate 1 | firefly reporter light, replicate 1 | firefly reporter light, replicate 2 | Renilla control light, replicate 1 | Renilla control light, replicate 2
prtp (pretaporter) | DRSC19804 | – | 4951 | 8843 | 1708 | 4646
prtp (pretaporter) | DRSC22494 | – | 7.15e5 | 6.39e5 | 2.76e5 | 1.60e5
CG43182 | DRSC17668 | – | 3094 | – | 1428 | –
Dic3 | DRSC06058 | – | 4005 | 8445 | 1274 | 3537
lobo (lost boys) | DRSC14662 | – | 19396 | – | 14277 | –
lobo (lost boys) | DRSC14663 | – | 13568 | – | 14257 | –
Nepl12 (Neprilysin-like 12) | DRSC16411 | – | 14800 | – | 3974 | –
hth (homothorax) | DRSC16967 | – | 15448 | – | 2897 | –
Nuak (Nuak family kinase) | DRSC14414 | – | 14753 | – | 4167 | –

Further reagents follow.
Gene | DRSC id | reporter change call, replicate 1 | firefly reporter light, replicate 1 | firefly reporter light, replicate 2 | Renilla control light, replicate 1 | Renilla control light, replicate 2
IntS8 (Integrator 8) | DRSC07417 | – | 10834 | – | 4291 | –
CG9784 | DRSC20210 | – | 18564 | – | 6901 | –
Coq6 (Coenzyme Q6) | DRSC03040 | – | 8216 | – | 2572 | –
ND-B14 (NADH dehydrogenase (ubiquinone) B14 subunit) | DRSC07029 | – | 4521 | 4956 | 981 | 2572
Cp36 (Chorion protein 36) | DRSC18452 | – | 17147 | – | 8614 | –
CG1545 | DRSC21532 | – | 3.69e5 | 3.97e5 | 1.75e5 | 1.62e5
CG13737 | DRSC10064 | Wg reporter activity lowered (active) | 5226 | – | 3445 | –
CG8539 | DRSC10988 | – | 10288 | – | 3990 | –
CG8539 | DRSC21798 | – | 2.46e5 | 4.12e5 | 1.19e5 | 1.73e5
Dpp10 (Dipeptidyl peptidase 10) | DRSC00942 | – | 19040 | – | 8390 | –
Dpp10 (Dipeptidyl peptidase 10) | DRSC02139 | – | 2964 | 3289 | 791 | 1467
CG31206 | DRSC13388 | – | 3504 | – | 1804 | –
asRNA:Eig63F-2 + Eip63F-1 | DRSC21446 | – | 3.60e5 | 4.00e5 | 1.45e5 | 1.31e5
CG5835 | DRSC15886 | – | 11856 | – | 3254 | –
Gpdh2 (Glycerol-3-phosphate dehydrogenase 2) | DRSC04346 | – | 4364 | 9747 | 1042 | 3200
lncRNA:yar (yellow-achaete intergenic RNA) | DRSC17679 | – | 4336 | – | 2130 | –
lncRNA:yar (yellow-achaete intergenic RNA) | DRSC21708 | – | 8.42e5 | 8.73e5 | 4.31e5 | 4.01e5
inaF-C | DRSC18902 | – | 2941 | – | 1336 | –
LManV (Lysosomal alpha-mannosidase V) | DRSC03223 | – | 10509 | – | 2640 | –
neur + asRNA:CR31429 | DRSC17013 | – | 3365 | – | 1675 | –
sw + Sdic4 + Sdic3 + 2 more | DRSC20696 | – | 22272 | – | 9634 | –
CG1416 | DRSC03706 | – | 10716 | – | 3773 | –
erm (earmuff) | DRSC00700 | – | 11111 | – | 5095 | –
ND-13B (NADH dehydrogenase (ubiquinone) 13 kDa B subunit) | DRSC10643 | – | 7323 | – | 2252 | –
CG31373 | DRSC16052 | – | 19210 | – | 4116 | –
CG4313 | DRSC18514 | – | 3330 | 7377 | 1104 | 1834
MstProx | DRSC12458 | – | 2967 | – | 1249 | –
MstProx | DRSC12601 | – | 10329 | – | 3587 | –
CG43366 | DRSC04857 | – | 3171 | 9176 | 1034 | 3491
CG43366 | DRSC04864 | – | 3025 | 6858 | 940 | 2353
CG6041 | DRSC18396 | – | 16137 | – | 8856 | –
Mal-A1 (Maltase A1) | DRSC07461 | – | 2408 | 7021 | 598 | 2307
Nepl19 (Neprilysin-like 19) | DRSC14875 | – | 3805 | – | 1313 | –
polo | DRSC11384 | – | 9344 | – | 3484 | –
polo | DRSC22359 | – | 5.90e5 | 4.79e5 | 1.34e5 | 1.18e5
CG11912 | DRSC00332 | – | 6915 | – | 3128 | –
Had2 (beta Hydroxy acid dehydrogenase 2) | DRSC05971 | – | 14753 | – | 4583 | –
Rab2 | DRSC05017 | – | 13945 | – | 4007 | –
CG5151 | DRSC10487 | Wg reporter activity raised (active) | 9515 | – | 1136 | –
CG11523 | DRSC11669 | – | 5097 | – | 2425 | –
dUTPase (Deoxyuridine triphosphatase) | DRSC01998 | – | 20928 | – | 5141 | –
CG14949 | DRSC08408 | – | 5953 | – | 2614 | –
su(f) (suppressor of forked) | DRSC20907 | – | 11261 | – | 9235 | –
